The values below are quoted from earlier work in article PMC9405847, “Design, Synthesis and Pharmacological Evaluation of Novel Conformationally Restricted N-arylpiperazine Derivatives Characterized as D2/D3 Receptor Ligands, Candidates for the Treatment of Neurodegenerative Diseases” (Biomolecules, 2022).

The data set addresses D3 receptor. The conditions noted are these: cited from earlier work.

Broadly, the Ki is a dissociation constant, usually derived from enzyme kinetics or from competition with a known ligand. Turning to `O=C1CCc2ccc(OCCCCN3CCN(c4cccc(Cl)c4Cl)CC3)cc2N1` [aripiprazole], the inhibitory constant (Ki) was 0.8 nM.
